Data from article doi:10.1101/2023.10.24.563888.
No constants are given. Whether binding was seen depends on the method and setting. In cells and extracts the contact can be indirect. Some entries that bind do so weakly or less than the wild type. Where a sequence is shown, tags or fusion partners need not be part of it.

Chains of the proteins cited; added tags and fusions are not shown.
UniProt P02538: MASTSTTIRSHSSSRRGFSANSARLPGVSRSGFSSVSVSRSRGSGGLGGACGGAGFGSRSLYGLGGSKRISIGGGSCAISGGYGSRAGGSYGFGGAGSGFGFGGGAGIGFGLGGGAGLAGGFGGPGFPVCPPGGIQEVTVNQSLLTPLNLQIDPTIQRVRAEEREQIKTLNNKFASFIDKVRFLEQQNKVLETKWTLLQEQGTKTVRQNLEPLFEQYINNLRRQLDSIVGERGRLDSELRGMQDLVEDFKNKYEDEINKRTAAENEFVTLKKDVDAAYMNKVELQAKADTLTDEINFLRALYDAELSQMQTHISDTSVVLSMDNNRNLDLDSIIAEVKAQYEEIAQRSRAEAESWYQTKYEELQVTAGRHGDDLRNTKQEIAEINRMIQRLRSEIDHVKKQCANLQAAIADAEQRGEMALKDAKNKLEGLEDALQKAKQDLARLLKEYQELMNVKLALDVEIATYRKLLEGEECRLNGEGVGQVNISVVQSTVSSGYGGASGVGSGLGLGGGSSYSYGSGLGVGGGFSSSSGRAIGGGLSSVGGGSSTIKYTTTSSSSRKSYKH

Target: T1, Flag-tagged ELKS (UniProt Q8IUD2)
T1 sequence: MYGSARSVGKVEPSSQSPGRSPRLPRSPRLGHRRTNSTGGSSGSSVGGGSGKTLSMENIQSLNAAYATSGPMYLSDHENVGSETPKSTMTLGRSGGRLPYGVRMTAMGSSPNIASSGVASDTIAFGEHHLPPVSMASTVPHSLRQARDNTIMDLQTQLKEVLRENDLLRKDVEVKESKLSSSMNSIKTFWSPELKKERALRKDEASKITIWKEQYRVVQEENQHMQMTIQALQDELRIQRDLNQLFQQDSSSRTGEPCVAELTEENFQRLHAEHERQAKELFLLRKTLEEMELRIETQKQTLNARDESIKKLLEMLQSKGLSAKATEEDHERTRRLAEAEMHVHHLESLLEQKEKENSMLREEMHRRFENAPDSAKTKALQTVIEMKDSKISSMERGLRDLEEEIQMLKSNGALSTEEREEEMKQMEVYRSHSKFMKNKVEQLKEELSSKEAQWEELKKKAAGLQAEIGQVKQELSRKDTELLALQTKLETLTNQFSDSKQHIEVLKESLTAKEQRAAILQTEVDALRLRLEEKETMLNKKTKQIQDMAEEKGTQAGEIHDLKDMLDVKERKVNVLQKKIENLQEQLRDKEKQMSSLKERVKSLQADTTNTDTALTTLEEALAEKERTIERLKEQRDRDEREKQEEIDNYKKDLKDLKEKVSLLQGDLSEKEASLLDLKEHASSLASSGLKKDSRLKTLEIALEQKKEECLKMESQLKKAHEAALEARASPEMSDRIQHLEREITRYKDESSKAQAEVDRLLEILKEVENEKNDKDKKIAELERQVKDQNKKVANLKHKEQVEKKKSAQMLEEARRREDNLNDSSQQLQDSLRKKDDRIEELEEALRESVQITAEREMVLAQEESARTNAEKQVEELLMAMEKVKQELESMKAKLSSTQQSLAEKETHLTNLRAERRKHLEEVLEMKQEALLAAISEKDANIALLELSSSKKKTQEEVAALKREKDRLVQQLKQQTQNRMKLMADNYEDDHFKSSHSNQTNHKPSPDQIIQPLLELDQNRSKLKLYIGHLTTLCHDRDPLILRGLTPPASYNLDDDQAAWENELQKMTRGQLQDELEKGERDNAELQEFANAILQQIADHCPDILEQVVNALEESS
Experiment: co-IP

“K6a overexpressed in 293T cells (from UniProt P02538 1-564)” was tested, and the binding was “binds”.
